These are yes or no findings as the source states them, for the method shown. Some binding calls cover weakened binding; strength is not graded here.
Tests used:
[1] = molecular target: T1, HER2_604-622C peptide (NH2-…-COOH) (human); assay: ELISA on coated HER2p604-622C, hybridoma supernatant
T1 sequence (peptide): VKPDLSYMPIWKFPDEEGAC

[2] = molecular target: T2, G603A peptide (HER2 603-622 with G603A) (human); assay: peptide ELISA, OD 655 nm
T2 sequence (peptide): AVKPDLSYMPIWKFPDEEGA

[3] = molecular target: T3, K615A peptide (HER2 603-622 with K615A) (human); assay: peptide ELISA, OD 655 nm
T3 sequence (peptide): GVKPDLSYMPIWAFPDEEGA

[4] = molecular target: T1, HER2_604-622C peptide (NH2-…-COOH) (human); assay: peptide ELISA, OD 655 nm
[5] = molecular target: T4, D618A peptide (HER2 603-622 with D618A) (human); assay: peptide ELISA, OD 655 nm
T4 sequence (peptide): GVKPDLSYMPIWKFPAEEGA

[6] = molecular target: T5, E620A peptide (HER2 603-622 with E620A) (human); assay: peptide ELISA, OD 655 nm
T5 sequence (peptide): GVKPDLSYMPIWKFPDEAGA

[7] = molecular target: T6, P617A peptide (HER2 603-622 with P617A) (human); assay: peptide ELISA, OD 655 nm
T6 sequence (peptide): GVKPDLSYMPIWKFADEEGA

[8] = molecular target: T7, P606A peptide (HER2 603-622 with P606A) (human); assay: peptide ELISA, OD 655 nm
T7 sequence (peptide): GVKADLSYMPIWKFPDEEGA

[9] = molecular target: T8, K605A peptide (HER2 603-622 with K605A) (human); assay: peptide ELISA, OD 655 nm
T8 sequence (peptide): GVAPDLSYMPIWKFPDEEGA

[10] = molecular target: T9, M611A peptide (HER2 603-622 with M611A) (human); assay: peptide ELISA, OD 655 nm
T9 sequence (peptide): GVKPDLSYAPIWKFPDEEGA

[11] = molecular target: T10, HER2 peptide p603-622 (amino acids 603 to 622 of human HER2) (human); assay: peptide ELISA, OD 655 nm
T10 sequence (peptide): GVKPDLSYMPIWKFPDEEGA

[12] = molecular target: T11, D607A peptide (HER2 603-622 with D607A) (human); assay: peptide ELISA, OD 655 nm
T11 sequence (peptide): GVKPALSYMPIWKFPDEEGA

[13] = molecular target: T12, I613A peptide (HER2 603-622 with I613A) (human); assay: peptide ELISA, OD 655 nm
T12 sequence (peptide): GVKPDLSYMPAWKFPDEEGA

[14] = molecular target: T13, Y610A peptide (HER2 603-622 with Y610A) (human); assay: peptide ELISA, OD 655 nm
T13 sequence (peptide): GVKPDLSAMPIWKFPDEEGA

[15] = molecular target: T14, S609A peptide (HER2 603-622 with S609A) (human); assay: peptide ELISA, OD 655 nm
T14 sequence (peptide): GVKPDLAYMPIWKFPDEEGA

[16] = molecular target: T15, G621A peptide (HER2 603-622 with G621A) (human); assay: peptide ELISA, OD 655 nm
T15 sequence (peptide): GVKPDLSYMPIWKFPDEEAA

[17] = molecular target: T16, V604A peptide (HER2 603-622 with V604A) (human); assay: peptide ELISA, OD 655 nm
T16 sequence (peptide): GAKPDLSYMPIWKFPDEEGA

[18] = molecular target: T17, E619A peptide (HER2 603-622 with E619A) (human); assay: peptide ELISA, OD 655 nm
T17 sequence (peptide): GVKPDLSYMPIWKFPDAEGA

[19] = molecular target: T18, L608A peptide (HER2 603-622 with L608A) (human); assay: peptide ELISA, OD 655 nm
T18 sequence (peptide): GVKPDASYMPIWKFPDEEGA

[20] = molecular target: T19, P612A peptide (HER2 603-622 with P612A) (human); assay: peptide ELISA, OD 655 nm
T19 sequence (peptide): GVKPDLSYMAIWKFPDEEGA

[21] = molecular target: T3, K615A peptide (HER2 603-622 with K615A) (human); assay: ELISA on alanine-substituted peptides
[22] = molecular target: T20, F616A peptide (HER2 603-622 with F616A) (human); assay: ELISA on alanine-substituted peptides
T20 sequence (peptide): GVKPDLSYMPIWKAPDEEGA

[23] = molecular target: T21, HER2 peptide p613-622 (human); assay: peptide ELISA, OD 655 nm
T21 sequence (peptide): IWKFPDEEGA

[24] = molecular target: T22, HER2 peptide p613-621 (human); assay: peptide ELISA, OD 655 nm
T22 sequence (peptide): IWKFPDEEG

Measured: binding

B1: H2Mab-286 antibody (antibody, mouse IgG1, kappa, V domains shown)
VH: DVQLQESGPGLVKPSQSLSLTCTVTGYSITSDYGWNWIRQFPGNKLEWMGYIRYSGITSYNPSLKSRISITRDTSKNQFFLQLNSVTTEDTATYYCTREVLSWGQGTTLTVSS
VL: DVVMTQTPLSLPVSLGDQASISCRSSQSLVHSNGNTYLHWFLQKPGQSPKLLIYKVSNRFSGVPARFSGSGSGTDFTLKISRVEAEDLGVYFCSQSTHVPPTFGGGTKLEIKR
not listed: [21] | [22] | [23] | [24]
binds: all other assays above

B2: H2Mab-214 antibody (antibody, V domains shown)
VH: QVTLKESGPGILQPSQTLSLTCSFSGFSLSTSGMGVSWIRQPSGKGLEWLAHIFWDDDKRYNPSLKSRLTISKDTSRNKVFLKITSVDTADTATYYCARRVVATDWYFDVWGAGTTVTVSS
VL: DIVLTQSPASLAVSLGQRATISCRASESVEYYGTTLMQWYQQKPGQPPKLLIYAASKVESGVPARFSGSGSGTDFSLNIHPVEEDDVAMYFCQQSRKVPLTFGAGTKLELKR
binds: [21] | [22] | [23] | [24]

From US20240002531A1
